Results from article PMC12799421, “Inhibition of constitutive activity of the atypical chemokine receptor 3 by the small-molecule inverse agonist VUF16840” (Molecular Pharmacology, 2025).
Results are given in words; binding and its absence hold for the method and conditions named. In cells and extracts the contact can be indirect. Some results given as binding are weak or reduced against the parent protein; the word gives no strength. For some of these results: Where a sequence is shown, tags or fusion partners need not be part of it.

Chains of the proteins cited; added tags and fusions are not shown.
UniProt P25106: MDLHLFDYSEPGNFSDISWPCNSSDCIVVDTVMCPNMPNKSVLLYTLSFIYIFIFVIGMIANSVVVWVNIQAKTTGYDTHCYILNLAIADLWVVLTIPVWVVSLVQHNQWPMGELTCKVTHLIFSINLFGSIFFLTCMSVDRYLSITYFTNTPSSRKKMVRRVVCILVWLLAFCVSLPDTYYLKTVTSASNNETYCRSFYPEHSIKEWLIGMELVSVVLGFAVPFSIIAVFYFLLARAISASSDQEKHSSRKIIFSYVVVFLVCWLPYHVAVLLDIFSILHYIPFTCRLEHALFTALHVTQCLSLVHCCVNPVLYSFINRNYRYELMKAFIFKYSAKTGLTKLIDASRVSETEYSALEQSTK
UniProt P21146: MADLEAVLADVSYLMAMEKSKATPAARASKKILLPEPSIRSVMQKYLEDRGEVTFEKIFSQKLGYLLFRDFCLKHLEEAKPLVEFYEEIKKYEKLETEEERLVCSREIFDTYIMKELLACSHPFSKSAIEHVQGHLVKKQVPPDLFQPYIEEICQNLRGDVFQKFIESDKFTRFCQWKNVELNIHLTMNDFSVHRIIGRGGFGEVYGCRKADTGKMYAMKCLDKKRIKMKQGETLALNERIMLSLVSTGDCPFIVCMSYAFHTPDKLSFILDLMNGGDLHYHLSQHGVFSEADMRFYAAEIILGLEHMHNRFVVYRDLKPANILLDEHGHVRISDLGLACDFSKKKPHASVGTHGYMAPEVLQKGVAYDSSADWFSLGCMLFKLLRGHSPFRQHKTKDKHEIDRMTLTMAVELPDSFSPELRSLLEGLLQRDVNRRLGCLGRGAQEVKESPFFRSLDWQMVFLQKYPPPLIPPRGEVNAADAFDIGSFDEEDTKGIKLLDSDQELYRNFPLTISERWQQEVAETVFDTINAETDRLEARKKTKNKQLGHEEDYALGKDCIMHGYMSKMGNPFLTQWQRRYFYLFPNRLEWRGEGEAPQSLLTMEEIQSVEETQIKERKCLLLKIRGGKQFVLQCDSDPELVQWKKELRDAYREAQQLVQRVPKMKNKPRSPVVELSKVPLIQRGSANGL
UniProt P32121: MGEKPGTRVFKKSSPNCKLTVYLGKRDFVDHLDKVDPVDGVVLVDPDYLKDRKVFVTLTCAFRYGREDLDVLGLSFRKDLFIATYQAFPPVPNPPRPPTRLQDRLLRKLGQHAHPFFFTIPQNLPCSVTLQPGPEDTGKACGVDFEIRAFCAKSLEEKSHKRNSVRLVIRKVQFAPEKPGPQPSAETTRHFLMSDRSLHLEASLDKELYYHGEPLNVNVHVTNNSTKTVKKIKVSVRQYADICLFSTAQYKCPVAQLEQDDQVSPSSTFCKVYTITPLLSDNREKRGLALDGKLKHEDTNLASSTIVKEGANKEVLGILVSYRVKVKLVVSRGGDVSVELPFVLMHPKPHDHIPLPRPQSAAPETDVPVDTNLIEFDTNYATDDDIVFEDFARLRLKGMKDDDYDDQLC
UniProt P32120: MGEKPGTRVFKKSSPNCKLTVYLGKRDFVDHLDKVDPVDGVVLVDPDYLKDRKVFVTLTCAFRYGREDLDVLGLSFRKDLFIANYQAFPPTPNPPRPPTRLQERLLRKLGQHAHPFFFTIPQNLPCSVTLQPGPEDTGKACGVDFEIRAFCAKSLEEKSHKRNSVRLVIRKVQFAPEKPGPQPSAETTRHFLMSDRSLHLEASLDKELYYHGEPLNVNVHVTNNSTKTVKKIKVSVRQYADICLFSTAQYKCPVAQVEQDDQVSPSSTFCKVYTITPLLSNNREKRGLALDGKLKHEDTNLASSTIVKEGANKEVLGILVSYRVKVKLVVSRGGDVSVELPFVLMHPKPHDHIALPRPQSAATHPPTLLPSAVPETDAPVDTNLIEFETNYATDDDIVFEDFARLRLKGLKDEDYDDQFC

Assays:
hACKR3-Rluc8 (human) = hACKR3-Rluc8 (human) (UniProt P25106); assay: FRET or BRET; BRET between Rluc8-fused chemokine receptor (ACKR3-Rluc8 or CXCR4-Rluc8) and mVenus fusion proteins in transiently transfected HEK293T cells; basal and with CXCL11, CXCL12, VUF15485 or VUF16840
[1] = biological target: T1, hCCR3 C-terminally tagged with SmBiT (chemokine receptor screen) (human) (UniProt P51677); assay: split reporter; NanoBiT chemokine receptor screen: receptor C-terminally tagged with SmBiT and β-arrestin2 N-terminally fused to LgBiT in HEK293T cells; 1 μM VUF16840 or chemokine agonist; 20 minutes read
T1 sequence: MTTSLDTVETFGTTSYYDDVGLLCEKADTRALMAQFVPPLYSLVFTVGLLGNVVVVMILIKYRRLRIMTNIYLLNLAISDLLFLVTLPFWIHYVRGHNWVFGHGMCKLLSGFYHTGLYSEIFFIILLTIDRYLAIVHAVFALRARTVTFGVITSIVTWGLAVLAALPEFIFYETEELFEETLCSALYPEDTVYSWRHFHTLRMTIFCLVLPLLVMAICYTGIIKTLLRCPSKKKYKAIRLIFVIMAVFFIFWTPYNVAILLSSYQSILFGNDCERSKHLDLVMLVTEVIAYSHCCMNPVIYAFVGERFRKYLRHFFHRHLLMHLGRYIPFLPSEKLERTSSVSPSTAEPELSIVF

SmBiT-clathrinA = biological target: T2, SmBiT-clathrinA (UniProt P09496); assay: split reporter; NanoBiT complementation of β-arrestin2-LgBiT and SmBiT-clathrin A in HEK293T cells co-transfected with ACKR3; basal and with VUF15485 or VUF16840; 37 °C
T2 sequence: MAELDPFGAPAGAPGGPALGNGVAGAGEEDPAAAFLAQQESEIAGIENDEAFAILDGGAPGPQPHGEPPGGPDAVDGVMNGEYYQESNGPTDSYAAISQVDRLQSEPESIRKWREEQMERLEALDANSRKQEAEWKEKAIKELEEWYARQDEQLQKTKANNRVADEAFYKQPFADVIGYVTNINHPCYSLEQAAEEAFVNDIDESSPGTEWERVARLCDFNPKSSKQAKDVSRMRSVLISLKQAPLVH

binding (hACKR3-Rluc8 (human)) | Substance | other results
binds | GRK2-mVenus (from UniProt P21146 1-689) (enzyme) | –
– | β-arrestin2, N-terminally fused to the LgBiT sensor (chemokine receptor screen) (from UniProt P32121 1-409) | binding [1]: binds
– | β-arrestin2-LgBiT (from UniProt P32121 1-409) | binding (SmBiT-clathrinA): binds
binds | β-arrestin2-mVenus (from UniProt P32120 1-420) | –
